Patent US10214583B2, “Sodium pump antibody agonists and methods of treating heart disease using the same” (priority 2011, dated 2019)
At least one structure is not confirmed: it was looked up by name or label, or the drawing left a doubt.

Test system: isolated rat myocytes
Experiment: Nifedipine and KB-R7943 sensitive 45Ca influx
Format: cell-based
Protocol: The reaction was stopped by adding 5 mM EGTA on ice and cells were washed and spun at 4000 rpm for 2 min (×3) to remove extracellular ^45Ca. Net intracellular counts per minute (cpm) of ^45Ca for each sample was determined by using a β-scintillation counter and the concentration of ^45Ca was calculated as described previously (20).

## COC(=O)C1=C(C)NC(C)=C(C(=O)OC)C1c1ccccc1[N+](=O)[O-] [nifedipine]
10 μM nifedipine
  effect on JY2948-induced 45Ca influx: completely blocked
10 μM nifedipine alone
  changes of 45Ca concentration compared with control cell background: No significant changes
